These are yes or no findings as the source states them, for the method shown. Binding seen in cells or lysates may run through a third protein. Where a sequence is shown, tags or fusion partners need not be part of it.
Molecular target: T1, GFP-TBK1 (UniProt Q9UHD2)
T1 sequence: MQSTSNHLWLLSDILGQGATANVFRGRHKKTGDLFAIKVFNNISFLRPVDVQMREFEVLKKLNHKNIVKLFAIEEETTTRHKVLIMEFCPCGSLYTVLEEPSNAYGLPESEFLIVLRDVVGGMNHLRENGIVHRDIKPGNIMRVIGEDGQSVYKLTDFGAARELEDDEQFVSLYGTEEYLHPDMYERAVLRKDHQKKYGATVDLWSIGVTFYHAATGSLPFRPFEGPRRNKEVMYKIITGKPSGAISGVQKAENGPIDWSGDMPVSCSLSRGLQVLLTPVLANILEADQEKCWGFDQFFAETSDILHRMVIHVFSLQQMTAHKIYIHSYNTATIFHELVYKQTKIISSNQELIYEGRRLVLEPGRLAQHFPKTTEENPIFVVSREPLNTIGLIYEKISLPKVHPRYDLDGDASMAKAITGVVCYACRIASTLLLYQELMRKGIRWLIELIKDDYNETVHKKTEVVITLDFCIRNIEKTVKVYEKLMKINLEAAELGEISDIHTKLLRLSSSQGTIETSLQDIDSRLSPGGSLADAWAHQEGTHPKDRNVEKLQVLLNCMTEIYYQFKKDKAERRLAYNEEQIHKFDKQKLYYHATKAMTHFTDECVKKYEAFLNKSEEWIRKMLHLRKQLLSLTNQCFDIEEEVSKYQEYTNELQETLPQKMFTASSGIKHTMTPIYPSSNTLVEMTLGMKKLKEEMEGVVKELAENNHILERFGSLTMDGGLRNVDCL
Assay: co-IP; HEK293T cells expressing GFP-TBK1 together with TBC1D23 WT-mCherry or 3K-mCherry; immunoprecipitation with GFP beads, immunoblot

B1: TBC1D23 3K-mCherry (protein, UniProt Q9NUY8-2 1-684)
chain: MAEGEDVPPLPTSSGDGWEKDLEEALEAGGCDLETLRNIIQGRPLPADLRAKVWKIALNVAGKGDSLASWDGILDLPEQNTIHKDCLQFIDQLSVPEEKAAELLLDIESVITFYCKSRNIKYSTSLSWIHLLKPLVHLQLPRSDLYNCFYAIMNKYIPRDCSQKGRPFHLFRLLIQYHEPELCSYLDTKKITPDSYALNWLGSLFACYCSTEVTQAIWDGYLQQADPFFIYFLMLIILVNAKEVILTQESDSKEEVIKFLENTPSSLNIEDIEDLFSLAQYYCSKTPASFRKDNHHLFGSTLLGIKDDDADLSQALCLAISVSEILQANQLQGEGVRFFVVDCRPAEQYNAGHLSTAFHLDSDLMLQNPSEFAQSVKSLLEAQKQSIESGSIAGGEHLCFMGSGREEEDMYMNMVLAHFLQKNKEYVSIASGGFMALQQHLADINVDGPENGYGHWIASTSGSRSSINSVDGESPNGSSDRGMKSLVNKMTVALKTKSVNVREKVISFIENTSTPVDRHVSSSDRVGKPYRGVKPVFSIGDEEEYDTDEIDSSSMSDDDRKEVVNIQTWINKPDVKHHFPCKEVKESGHMFPSHLLVTATHMYCLREIVSRKGLAYIQSRQALNSVVKITSEEEHPELITFKYGNSSASGIEILAIERYLIPNAGDATKAIKQQIMKVLDALES
- binding: no binding

— publication PMC11914254
